Measured values reported in publication PMC12072129.

Target: PIBF1, endogenous in mouse germ cell lines (mouse (endogenous in GC1 and GC2))
Test: co-IP; GC1 and GC2 cell lysates incubated with anti-PIBF1 antibody, anti-PCM1 antibody or rabbit IgG; endogenous USO1 detected in the precipitate

binding: binds
B1: USO1 vesicle transport factor (USO1), endogenous in mouse germ cell lines (protein, UniProt Q9Z1Z0 1-959)
chain: MNFLRGVMGGQSAGPQHTEAETIQKLCDRVASSTLLDDRRNAVRALKSLSKKYRLEVGIQAMEHLIHVLQTDRSDSEIIAYALDTLYNIISNDEEEELEENSTRQSEDLGSQFTEIFIKQPENVTLLLSLLEEFDFHVRWPGVRLLTSLLKQLGPPVQQIILVSPMGVSRLMDLLADSREIIRNDGVLLLQALTRSNGAIQKIVAFENAFERLLDIITEEGNSDGGIVVEDCLILLQNLLKTNNSNQNFFKEGSYIQRMKPWFEVGEENSGWSAQKVTNLHLMLQLVRVLVSPTNPPGATSSCQKAMFQCGLLQQLCTILMATGIPADILTETINTVSEVIRGCQVNQDYFASVNAPSNPPRPAIVVLLMSMVNERQPFVLRCAVLYCFQCFLYKNEKGQGEIVATLLPSTIDATGNSVSAGQLLCGGLFSTDSLSNWCAAVALAHALQGNATQKEQLLRVQLATSIGNPPVSLLQQCTNILSQGSKIQTRVGLLMLLCTWLSNCPIAVTHFLHNSANVPFLTGQIAENLGEEEQLVQGLCALLLGISIYFNDNSLENYTKEKLKQLIEKRIGKENFIEKLGFISKHELYSRASQKPQPNFPSPEYMIFDHEFTKLVKELEGVITKAIYKSSEEDKKEEEVKKTLEQHDNIVTHYKNMIREQDLQLEELKQQVSTLKCQNEQLQTAVTQQASQIQQHKDQYNLLKVQLGKDNHHQGSHGDGAQVNGIQPEEISRLREEIEELKSQQALLQGQLAEKDSLIENLKSSQASGMSEQASATCPPRDPEQVAELKQELTALKSQLCSQSLEITRLQTENCELLQRAETLAKSVPVEGESEHVSAAKTTDVEGRLSALLQETKELKNEIKALSEERTAIQKQLDSSNSTIAILQTEKDKLDLEVTDSKKEQDDLLVLLADQDQKILSLKSKLKDLGHPVEEEDESGDQEDDDDEIDDGDKDQDI

These are yes or no findings as the source states them, for the method shown. Binding seen in cells or lysates may run through a third protein. Binding calls can cover weak binding; strength is not graded here.
